PMC7477767

Amino acid sequences for entries named in this document (tags omitted).
UniProt P35579: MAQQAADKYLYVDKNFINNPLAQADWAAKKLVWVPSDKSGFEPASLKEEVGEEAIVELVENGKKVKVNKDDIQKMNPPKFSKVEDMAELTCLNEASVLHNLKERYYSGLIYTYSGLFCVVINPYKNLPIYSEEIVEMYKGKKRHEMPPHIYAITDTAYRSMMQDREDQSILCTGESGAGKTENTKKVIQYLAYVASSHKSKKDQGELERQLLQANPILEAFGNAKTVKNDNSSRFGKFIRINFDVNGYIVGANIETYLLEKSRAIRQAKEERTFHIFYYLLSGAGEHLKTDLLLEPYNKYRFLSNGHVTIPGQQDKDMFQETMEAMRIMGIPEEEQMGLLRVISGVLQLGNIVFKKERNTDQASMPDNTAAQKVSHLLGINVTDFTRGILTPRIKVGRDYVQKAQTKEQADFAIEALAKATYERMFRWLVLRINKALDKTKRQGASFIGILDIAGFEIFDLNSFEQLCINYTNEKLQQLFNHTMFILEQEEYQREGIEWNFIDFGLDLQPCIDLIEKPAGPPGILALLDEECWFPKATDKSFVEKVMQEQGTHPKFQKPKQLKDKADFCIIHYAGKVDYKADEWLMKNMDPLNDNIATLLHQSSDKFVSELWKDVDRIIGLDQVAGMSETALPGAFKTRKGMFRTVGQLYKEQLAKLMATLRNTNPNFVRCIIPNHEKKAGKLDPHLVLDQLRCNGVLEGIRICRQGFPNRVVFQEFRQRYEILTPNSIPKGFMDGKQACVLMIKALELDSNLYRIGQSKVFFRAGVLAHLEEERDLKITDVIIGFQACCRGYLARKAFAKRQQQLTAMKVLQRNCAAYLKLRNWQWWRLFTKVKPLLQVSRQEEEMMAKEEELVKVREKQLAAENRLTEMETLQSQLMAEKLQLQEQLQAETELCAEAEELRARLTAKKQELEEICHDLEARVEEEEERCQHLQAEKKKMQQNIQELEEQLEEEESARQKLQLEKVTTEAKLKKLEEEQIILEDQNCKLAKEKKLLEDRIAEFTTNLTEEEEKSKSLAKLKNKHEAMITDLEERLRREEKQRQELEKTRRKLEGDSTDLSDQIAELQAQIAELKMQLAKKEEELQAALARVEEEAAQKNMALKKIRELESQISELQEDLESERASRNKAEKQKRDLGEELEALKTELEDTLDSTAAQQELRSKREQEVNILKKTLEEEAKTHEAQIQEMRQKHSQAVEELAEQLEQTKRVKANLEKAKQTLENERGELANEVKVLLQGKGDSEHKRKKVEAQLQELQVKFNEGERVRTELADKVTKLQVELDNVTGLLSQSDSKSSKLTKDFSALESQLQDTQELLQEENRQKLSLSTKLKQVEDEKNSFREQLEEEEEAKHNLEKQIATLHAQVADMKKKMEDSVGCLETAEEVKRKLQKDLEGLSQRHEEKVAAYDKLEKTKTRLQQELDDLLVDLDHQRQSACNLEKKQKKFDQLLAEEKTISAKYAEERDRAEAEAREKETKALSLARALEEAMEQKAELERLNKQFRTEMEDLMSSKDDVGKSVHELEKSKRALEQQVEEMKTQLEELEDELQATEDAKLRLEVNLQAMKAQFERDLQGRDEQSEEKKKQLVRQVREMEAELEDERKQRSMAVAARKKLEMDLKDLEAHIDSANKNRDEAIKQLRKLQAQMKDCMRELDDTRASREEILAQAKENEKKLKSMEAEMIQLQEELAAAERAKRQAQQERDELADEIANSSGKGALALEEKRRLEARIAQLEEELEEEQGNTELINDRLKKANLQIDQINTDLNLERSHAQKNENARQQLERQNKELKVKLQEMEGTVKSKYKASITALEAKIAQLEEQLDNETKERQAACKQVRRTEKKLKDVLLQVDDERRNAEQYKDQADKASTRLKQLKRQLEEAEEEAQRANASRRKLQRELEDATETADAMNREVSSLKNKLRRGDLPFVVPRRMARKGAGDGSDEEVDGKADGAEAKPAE

Target: T1, FLAG-tagged CRLF1 (Cytokine Receptor-Like Factor 1) (UniProt O75462)
T1 sequence: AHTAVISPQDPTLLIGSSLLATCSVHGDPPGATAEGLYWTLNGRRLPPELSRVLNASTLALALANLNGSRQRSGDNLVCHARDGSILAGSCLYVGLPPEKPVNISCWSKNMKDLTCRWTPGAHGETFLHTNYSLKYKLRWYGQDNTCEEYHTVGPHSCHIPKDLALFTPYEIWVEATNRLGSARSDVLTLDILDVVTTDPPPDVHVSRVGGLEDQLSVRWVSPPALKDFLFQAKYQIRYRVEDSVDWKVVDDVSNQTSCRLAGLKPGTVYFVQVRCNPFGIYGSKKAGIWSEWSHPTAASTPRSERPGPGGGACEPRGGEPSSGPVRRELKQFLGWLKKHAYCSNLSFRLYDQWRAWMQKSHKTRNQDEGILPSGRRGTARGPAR
Experiment: affinity purification with mass spectrometry; FLAG pull-down: lysate in IP lysis buffer (150 mM NaCl; 1% NP-40), FLAG beads at 4°C overnight, five washes, elution with FLAG peptide, SDS-PAGE, silver staining, LC-MS of the bands; empty vector as control

binding: binds
Substance: MYH9 (non-muscle myosin heavy-chain IIA protein), endogenous (from UniProt P35579 1-1960)

No constants are given. Whether binding was seen depends on the method and setting. Binding seen in cells or lysates may run through a third protein. These calls come from enrichment with a bait or labelling near it, and not all partners need be listed. Sequences can lack the tags named with a protein.
